Experimental data as given in patent US20140030218A1, “Treatment And Screening” (IMPERIAL INNOVATIONS LIMITED, published 2014).
No constants are given. Whether binding was seen depends on the method and setting. For part of these data: In cells and extracts the contact can be indirect. Some results given as binding are weak or reduced against the parent protein; the word gives no strength. One block for each molecule: values may come before it.

Protein sequences, listed by entry. Tags and fused reporters are not part of them. Lines headed by an entry give the natural chain unless they say otherwise; changes in a name come on top.
UniProt Q04206: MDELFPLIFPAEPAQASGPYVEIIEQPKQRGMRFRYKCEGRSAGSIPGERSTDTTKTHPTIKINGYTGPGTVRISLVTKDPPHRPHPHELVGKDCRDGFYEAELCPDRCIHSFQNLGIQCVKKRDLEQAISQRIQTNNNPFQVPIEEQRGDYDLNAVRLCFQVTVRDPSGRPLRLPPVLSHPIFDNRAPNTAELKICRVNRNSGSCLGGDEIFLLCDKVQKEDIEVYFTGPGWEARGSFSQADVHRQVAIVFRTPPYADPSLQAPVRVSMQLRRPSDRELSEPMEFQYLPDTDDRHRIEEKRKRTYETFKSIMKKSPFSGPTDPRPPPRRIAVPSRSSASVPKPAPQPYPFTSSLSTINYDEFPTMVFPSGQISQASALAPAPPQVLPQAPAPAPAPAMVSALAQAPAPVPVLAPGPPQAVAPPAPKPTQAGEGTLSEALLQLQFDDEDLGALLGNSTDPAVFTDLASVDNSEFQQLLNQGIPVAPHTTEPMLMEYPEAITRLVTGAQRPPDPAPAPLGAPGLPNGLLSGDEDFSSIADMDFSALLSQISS

Experiments:
[1] = target: endogenous NF-kB RelA (human) (UniProt Q04206); experiment: immunoprecipitation of endogenous IRF5 from MDDCs (LPS 0 or 1 h) with anti-IRF5 antibodies, immunoblot for RelA
[2] = target: endogenous NF-kB RelA (human) (UniProt Q04206); experiment: immunoprecipitation with anti-IRF5 antibodies from DNase I-digested nuclei of HEK-293-TLR4-CD14/Md2 cells (LPS 0, 1, 4, 8 h), immunoblot for RelA
[3] = target: One-Strep-IRF5 fusion protein (human) (UniProt Q13568); experiment: One-Strep affinity purification of full-length IRF5 with flag-tagged RelA truncated mutants, Western blot (legend of FIG. 33)
endogenous IRF5 (human) = endogenous IRF5 (human) (UniProt Q13568); experiment: anti-FLAG sepharose immunoprecipitation from HEK-293 cells without cross-linking, immunoblot
[4] = target: endogenous NF-kB RelA (human) (UniProt Q04206); experiment: pull-down and co-immunoprecipitation, immunoblot (title of the legend of FIG. 24)
[5] = target: endogenous NF-kB RelA (human) (UniProt Q04206); experiment: summary of the pull-down and co-immunoprecipitation experiments
[6] = target: endogenous NF-kB RelA (human) (UniProt Q04206); experiment: Strep-Tactin pull-down from formaldehyde-cross-linked HEK-293 cells, immunoblot
TRIM28 (human) [7] = target: T1, TRIM28 (human) (UniProt Q13263); experiment: One-Strep affinity purification without cross-linking, Western blot with a TRIM28 specific antibody
T1 sequence: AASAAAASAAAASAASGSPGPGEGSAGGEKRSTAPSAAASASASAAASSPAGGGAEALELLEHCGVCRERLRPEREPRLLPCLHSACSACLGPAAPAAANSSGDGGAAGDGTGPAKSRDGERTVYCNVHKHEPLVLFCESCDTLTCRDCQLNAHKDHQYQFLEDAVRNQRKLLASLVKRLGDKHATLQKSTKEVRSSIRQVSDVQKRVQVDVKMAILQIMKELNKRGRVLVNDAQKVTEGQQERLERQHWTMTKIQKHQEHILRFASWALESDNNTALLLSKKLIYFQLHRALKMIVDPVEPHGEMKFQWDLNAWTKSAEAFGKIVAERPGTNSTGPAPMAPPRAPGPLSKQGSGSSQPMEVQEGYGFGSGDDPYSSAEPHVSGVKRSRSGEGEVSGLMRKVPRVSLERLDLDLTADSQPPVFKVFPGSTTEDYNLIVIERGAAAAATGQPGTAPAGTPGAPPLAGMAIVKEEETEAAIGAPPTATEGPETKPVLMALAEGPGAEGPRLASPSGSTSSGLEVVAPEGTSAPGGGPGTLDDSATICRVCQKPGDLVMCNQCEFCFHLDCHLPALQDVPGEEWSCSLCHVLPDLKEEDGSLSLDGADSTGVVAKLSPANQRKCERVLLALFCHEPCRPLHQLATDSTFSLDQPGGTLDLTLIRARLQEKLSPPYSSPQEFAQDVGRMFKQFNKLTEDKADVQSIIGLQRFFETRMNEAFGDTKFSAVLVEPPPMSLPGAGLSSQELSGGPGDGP

TRIM28 (human) [8] = target: T1, TRIM28 (human); experiment: One-Strep affinity purification, Western blot (legend of FIG. 36)

Molecule: endogenous IRF5 (from UniProt Q13568 1-488)
- binding [1]: binds
- binding [2]: binds

Molecule: human RelA containing C-terminal FLAG tag (from UniProt Q04206 1-551)
- binding (endogenous IRF5 (human)): binds

B1: human IRF5 tagged with one-strep tag (N-terminus) and HA tag (C-terminus) (other)
chain: MNQSIPVAPTPPRRVRLKPWLVAQVNSCQYPGLQWVNGEKKLFCIPWRHATRHGPSQDGDNTIFKAWAKETGKYTEGVDEADPAKWKANLRCALNKSRDFRLIYDGPRDMPPQPYKIYEVCSNGPAPTDSQPPEDYSFGAGEEEEEEEELQRMLPSLSLTEDVKWPPTLQPPTLQPPVVLGPPAPDPSPLAPPPGNPAGFRELLSEVLEPGPLPASLPPAGEQLLPDLLISPHMLPLTDLEIKFQYRGRPPRALTISNPHGCRLFYSQLEATQEQVELFGPISLEQVRFPSPEDIPSDKQRFYTNQLLDVLDRGLILQLQGQDLYAIRLCQCKVFWSGPCASAHDSCPNPIQREVKTKLFSLEHFLNELILFQKGQTNTPPPFEIFFCFGEEWPDRKPREKKLITVQVVPVAARLLLEMFSGELSWSADSIRLQISNPDLKDRMVEQFKELHHIWQSQQRLQPVAQAPPGAGLGVGQGPWPMHPAGMQ
notes: Expressed in HEK-293-TLR4-CD14/Md2 cells and purified on Strep-Tactin after formaldehyde cross-linking; also called onestrep-IRF5-HA; IRF5 with an N-terminal one-strep tag and a C-terminal HA tag; not shown: N-terminal one-strep tag; C-terminal HA tag
- binding [4]: binds
- binding [5]: binds
- binding [6]: binds

The next lines start with the values.

- binding [3]: binds
Molecule: Rel A dimerisation domain (from UniProt Q04206 189-295)

- binding (TRIM28 (human) [7]): binds
- binding (TRIM28 (human) [8]): binds
B2: One-Strep-IRF5 fusion protein (other)
chain: MNQSIPVAPTPPRRVRLKPWLVAQVNSCQYPGLQWVNGEKKLFCIPWRHATRHGPSQDGDNTIFKAWAKETGKYTEGVDEADPAKWKANLRCALNKSRDFRLIYDGPRDMPPQPYKIYEVCSNGPAPTDSQPPEDYSFGAGEEEEEEEELQRMLPSLSLTEDVKWPPTLQPPTLQPPVVLGPPAPDPSPLAPPPGNPAGFRELLSEVLEPGPLPASLPPAGEQLLPDLLISPHMLPLTDLEIKFQYRGRPPRALTISNPHGCRLFYSQLEATQEQVELFGPISLEQVRFPSPEDIPSDKQRFYTNQLLDVLDRGLILQLQGQDLYAIRLCQCKVFWSGPCASAHDSCPNPIQREVKTKLFSLEHFLNELILFQKGQTNTPPPFEIFFCFGEEWPDRKPREKKLITVQVVPVAARLLLEMFSGELSWSADSIRLQISNPDLKDRMVEQFKELHHIWQSQQRLQPVAQAPPGAGLGVGQGPWPMHPAGMQ
notes: also called full-length IRF5 (One-Strep bait); not shown: One-Strep tag
